From article PMC5327418

By UniProt entry, the sequences of proteins in these tests, tags left out.
UniProt P32569: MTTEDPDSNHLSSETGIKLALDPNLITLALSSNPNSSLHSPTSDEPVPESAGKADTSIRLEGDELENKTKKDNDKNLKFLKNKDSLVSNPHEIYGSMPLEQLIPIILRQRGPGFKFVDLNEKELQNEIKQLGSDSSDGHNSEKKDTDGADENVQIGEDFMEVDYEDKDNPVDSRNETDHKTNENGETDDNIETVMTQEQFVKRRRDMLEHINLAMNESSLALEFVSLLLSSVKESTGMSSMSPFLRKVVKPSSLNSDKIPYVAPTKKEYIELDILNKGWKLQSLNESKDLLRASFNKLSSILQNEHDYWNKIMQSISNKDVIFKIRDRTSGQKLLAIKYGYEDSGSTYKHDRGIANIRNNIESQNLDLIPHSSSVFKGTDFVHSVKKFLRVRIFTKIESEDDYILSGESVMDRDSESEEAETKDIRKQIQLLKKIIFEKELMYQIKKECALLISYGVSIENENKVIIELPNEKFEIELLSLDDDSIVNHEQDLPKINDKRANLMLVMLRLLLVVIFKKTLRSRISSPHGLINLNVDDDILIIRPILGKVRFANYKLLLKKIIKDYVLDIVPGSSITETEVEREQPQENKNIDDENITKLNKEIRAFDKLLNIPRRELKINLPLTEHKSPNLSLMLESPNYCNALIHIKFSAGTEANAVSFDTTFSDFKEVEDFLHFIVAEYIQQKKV

B1: Swi6 (protein, UniProt P09959 1-803)
chain: MALEEVVRYLGPHNEIPLTLTRDSETGHFLLKHFLPILQQYHDTGNINETNPDSFPTDEERNKLLAHYGIAVNTDDRGELWIELEKCLQLLNMLNLFGLFQDAFEFEEPETDQDEEDPSHSKLPENKTKSENSKDNISSKRINNLQDMSLDSDAHRELGSPLKKLKIDTSVIDAESDSTPNTARGKPNDDINKGPSGDNENNGTDDNDRTAGPIITFTHDLTSDFLSSPLKIMKALPSPVVNDNEQKMKLEAFLQRLLFPEIQEMPTSLNNDSSNRNSEGGSSNQQQQHVSFDSLLQEVNDAFPNTQLNLNIPVDEHGNTPLHWLTSIANLELVKHLVKHGSNRLYGDNMGESCLVKAVKSVNNYDSGTFEALLDYLYPCLILEDSMNRTILHHIIITSGMTGCSAAAKYYLDILMGWIVKKQNRPIQSGTNEKESKPNDKNGERKDSILENLDLKWIIANMLNAQDSNGDTCLNIAARLGNISIVDALLDYGADPFIANKSGLRPVDFGAGTSKLQNTNGGDENSKMVSKGDYDGQKNGKAKKIRSQLLKNPPETTSLINDVQNLLNSISKDYENETVQYNEKLEKLHKELNEQREELANSREQLANVKQLKDEYSLMQEQLTNLKAGIEEEEESFREESKKLGIIADESSGIDWDSSEYDADEPFKVEFLSDFLEDKLQKNYEGDISKLLEAESKEQIMEQIRNQLPAEKIQSMLPPTVLLKARINAYKRNDKHLTNVLDTISTKQSELENKFRRVLSLCLKIDENKVDNMLDGLLQAISSEDPQDIDTDEMQDFLKKHAS
B2: Mbp1 (protein, UniProt P39678 1-833)
chain: MSNQIYSARYSGVDVYEFIHSTGSIMKRKKDDWVNATHILKAANFAKAKRTRILEKEVLKETHEKVQGGFGKYQGTWVPLNIAKQLAEKFSVYDQLKPLFDFTQTDGSASPPPAPKHHHASKVDRKKAIRSASTSAIMETKRNNKKAEENQFQSSKILGNPTAAPRKRGRPVGSTRGSRRKLGVNLQRSQSDMGFPRPAIPNSSISTTQLPSIRSTMGPQSPTLGILEEERHDSRQQQPQQNNSAQFKEIDLEDGLSSDVEPSQQLQQVFNQNTGFVPQQQSSLIQTQQTESMATSVSSSPSLPTSPGDFADSNPFEERFPGGGTSPIISMIPRYPVTSRPQTSDINDKVNKYLSKLVDYFISNEMKSNKSLPQVLLHPPPHSAPYIDAPIDPELHTAFHWACSMGNLPIAEALYEAGTSIRSTNSQGQTPLMRSSLFHNSYTRRTFPRIFQLLHETVFDIDSQSQTVIHHIVKRKSTTPSAVYYLDVVLSKIKDFSPQYRIELLLNTQDKNGDTALHIASKNGDVVFFNTLVKMGALTTISNKEGLTANEIMNQQYEQMMIQNGTNQHVNSSNTDLNIHVNTNNIETKNDVNSMVIMSPVSPSDYITYPSQIATNISRNIPNVVNSMKQMASIYNDLHEQHDNEIKSLQKTLKSISKTKIQVSLKTLEVLKESSKDENGEAQTNDDFEILSRLQEQNTKKLRKRLIRYKRLIKQKLEYRQTVLLNKLIEDETQATTNNTVEKDNNTLERLELAQELTMLQLQRKNKLSSLVKKFEDNAKIHKYRRIIREGTEMNIEEVDSSLDVILQTLIANNNKNKGAEQIITISNANSHA
B3: Taf1 (protein, UniProt P46677 1-1066)
chain: MVKQQGSGKTNLANEDEAYEAIFGGEFGSLEIGSYIGGDEGANSKDYTEHLPDAVDFEDEDELADDDDDLPEESDANLHPAMMTMGAYDDVNENGAVLGIDSNSLNMQLPEINGDLSQQFILEDDGGTPATSNALFMGMDANEIHLATETGVLDGSGANEIGHSQLSIGGVNGNDMSINGGFIMEPDMSDGKHKKATKLDLINHEKYLLKKYFPDFEKGKILKWNKLIYRRSVPYHWHSEISRVKKPFMPLNLKFKVQQDDKRLFNSRTISYVAPIYQGKNNLLQSNSSASRRGLIHVSIDELFPIKEQQKKRKIIHDEKTISEDLLIATDDWDQEKIINQGTSSTATLADSSMTPNLKFSGGYKLKSLIEDVAEDWQWDEDMIIDAKLKESKHAELNMNDEKLLLMIEKTNNLAQQKQQLDSSNLILPLNETILQQKFNLSNDDKYQILKKTHQTKVRSTISNLNIQHSQPAINLQSPFYKVAVPRYQLRHFHRENFGSHIRPGTKIVFSKLKARKRKRDKGKDVKESFSTSQDLTIGDTAPVYLMEYSEQTPVALSKFGMANKLINYYRKANEQDTLRPKLPVGETHVLGVQDKSPFWNFGFVEPGHIVPTLYNNMIRAPVFKHDISGTDFLLTKSSGFGISNRFYLRNINHLFTVGQTFPVEEIPGPNSRKVTSMKATRLKMIIYRILNHNHSKAISIDPIAKHFPDQDYGQNRQKVKEFMKYQRDGPEKGLWRLKDDEKLLDNEAVKSLITPEQISQVESMSQGLQFQEDNEAYNFDSKLKSLEENLLPWNITKNFINSTQMRAMIQIHGVGDPTGCGEGFSFLKTSMKGGFVKSGSPSSNNNSSNKKGTNTHSYNVAQQQKAYDEEIAKTWYTHTKSLSISNPFEEMTNPDEINQTNKHVKTDRDDKKILKIVRKKRDENGIIQRQTIFIRDPRVIQGYIKIKEQDKEDVNKLLEEDTSKINNLEELEKQKKLLQLELANLEKSQQRRAARQNSKRNGGATRTENSVDNGSDLAGVTDGKAARNKGKNTTRRCATCGQIGHIRTNKSCPMYSSKDNPASPK
B4: Taf2 (protein, UniProt P23255 1-1407)
chain: MMSFSKNATPRAIVSESSTLHEMKFRNFRVAHEKISLDIDLATHCITGSATIIIIPLIQNLEYVTFDCKEMTIKDVLVENRRCDQFIHDDPLQTNLNGLTSQNVLYSDNSIEQSHFLRSKFASLNEYPETDSKSQLTIKIPSSIKISLEDANALSNYTPITPSIKTTPGFQESVFTPITLQIEYEIRNPKSGIKFDTVYADKPWLWNVYTSNGEICSSASYWVPCVDLLDEKSTWELEFSVPRLVKNIGTSKLIGQNGEESEKEKEDTPEHDEEEEGKPARVIKDEDKDSNLKNDEEGKNSKSKDAQDNDEEEEEGESDEEEEEGEEERRNIEESNNPSLRDVIVCCSEYSNIKELPHPIDLTKKKCIFQIINPVAPHHIGWAIGAFNSWSLPLISPPSVDAEDEVEEDKLRENVVDNVNDTMDDDIGSDIIPIQIFTLPTQETDELTVINSTVVCQKIIDFYSKEFGSYPFTCYSMVFLPTAPSKHMDFAALGICNTRLLYPLEVIDKAFSTTNELAWALANQWSCVNITPLDMNDYWCCLGIAGYMVFQVTKKLMGNNTYKYQLKRNSEAIVEQDFEKPPIGSTFTGSSRPISWSSKDLSFIQLKAPMILHILDRRMTKTERSFGMSRVLPKIFLQAMSGDLPNNSLTSSHFQHVCERVNKSKLENFFNEWVYGSGVPILRVTQRFNRKRMVIELGIRQVQDEELGHEKVVGEEGFFKSALDHLEHPDLNRTECFTGSMTIRIHEHDGTPYEHIVEIKDTFTKIDIQYNTKYRRLRKRGGGANDENGVENNNEEKPIVVDVNCLGNVYMSPEECSRFSLTEFNRTSESNELLKQNEAFEWIRIDSDLEWICQMHINQPDYMFSSQLRQDGDIEAQLEAIRYYEDVVVNGGVKSLVYSSILFRTAIDERYFFGIRLAACEALSKYVYDPDFTGGVKHLIQIFQILFCLEDSNIPKSNNFENPKLYFLQCNIPKYLAKVKNENGKCPKLVKQFLLDILVYNENGENKYSDDAYVRSLIENVVKVALNEYKDKAYMEKVKTQLLRYENLVNWLSSYESLIKTTIMYAKYKLHKVGAYDFTELTGMIMHTLTLGINNGDISRESFQNEFLMVLKIMLLEGGLKNKDALVLFTEILCFHEDSYIRDKSVDVLSECVNLVVMDGSLDTISDDIKSSVQSVHNEVKNIKSEDDIELFLSGHYVDDMKIKIEKIGRQNISGLIQICRDMFKGYSPLKILLWDVLNLPVLSLYQRKQIHDLVRVMYTLINSFVVRLETPRERRLVAKMNSNEEGKLDIVIKRESILKVHIKKEVTSTVEAPKKANKIKISLKGDKPVRKVEKQIVKPKVTSKQRKVKSHVNRMGSLPLRFVKIQQQPRVMVHLSSVPYSQFVQITKVTSRSFMVKIRTKNDAKN
B5: Taf3 (protein, UniProt Q12297 1-353)
chain: MTTNNDFYFALLRISILQLLKAQGFDRARPSLVDVMTDLYAKFLSLLASEVSSIAQARCDQDDTIALQDITLALENLGIVKPTNVLDVYDENSELSSSRGMEKFKDWCIYSTQLTDARITALPTVELLQSEEKESDPLSAIPDYLNQLLQNKGAKQKLETKNRKTELIEDLINNNGLDDWIKLVIARQRINMIERASKKESQNVPALPHIAGYKSSILSRHHHTTITNEDRMPSAMTPRDEDALTEIQENPFVTSKLPIMRKENRLENITLSFEDEELESLGEVEGPNQKSQENNNEESFKENNKSLTESPHGDDRDISMFQFDSNVDTKWAEQEDMDSTFQRRTSLDYGGYF
B6: Taf4 (protein, UniProt P50105 1-388)
chain: MANSPKKPSDGTGVSASDTPKYQHTVPETKPAFNLSPGKASELSHSLPSPSQIKSTAHVSSTHNDAAGNTDDSVLPKNVSPTTNLRVESNGDTNNMFSSPAGLALPKKDDKKKNKGTSKADSKDGKASNSSGQNAQQQSDPNKMQDVLFSAGIDVREEEALLNSSINASKSQVQTNNVKIPNHLPFLHPEQVSNYMRKVGKEQNFNLTPTKNPEILDMMSSACENYMRDILTNAIVISRHRRKAVKINSGRRSEVSAALRAIALIQKKEEERRVKKRIALGLEKEDYENKIDSEETLHRASNVTAGLRAGSKKQYGWLTSSVNKPTSLGAKSSGKVASDITARGESGLKFREAREEPGIVMRDLLFALENRRNSVQTIISKGYAKIRD
B7: Taf5 (protein, UniProt P38129 1-798)
chain: MSQKQSTNQNQNGTHQPQPVKNQRTNNAAGANSGQQPQQQSQGQSQQQGRSNGPFSASDLNRIVLEYLNKKGYHRTEAMLRAESGRTLTPQNKQSPANTKTGKFPEQSSIPPNPGKTAKPISNPTNLSSKRDAEGGIVSSGRLEGLNAPENYIRAYSMLKNWVDSSLEIYKPELSYIMYPIFIYLFLNLVAKNPVYARRFFDRFSPDFKDFHGSEINRLFSVNSIDHIKENEVASAFQSHKYRITMSKTTLNLLLYFLNENESIGGSLIISVINQHLDPNIVESVTAREKLADGIKVLSDSENGNGKQNLEMNSVPVKLGPFPKDEEFVKEIETELKIKDDQEKQLNQQTAGDNYSGANNRTLLQEYKAMNNEKFKDNTGDDDKDKIKDKIAKDEEKKESELKVDGEKKDSNLSSPARDILPLPPKTALDLKLEIQKVKESRDAIKLDNLQLALPSVCMYTFQNTNKDMSCLDFSDDCRIAAAGFQDSYIKIWSLDGSSLNNPNIALNNNDKDEDPTCKTLVGHSGTVYSTSFSPDNKYLLSGSEDKTVRLWSMDTHTALVSYKGHNHPVWDVSFSPLGHYFATASHDQTARLWSCDHIYPLRIFAGHLNDVDCVSFHPNGCYVFTGSSDKTCRMWDVSTGDSVRLFLGHTAPVISIAVCPDGRWLSTGSEDGIINVWDIGTGKRLKQMRGHGKNAIYSLSYSKEGNVLISGGADHTVRVWDLKKATTEPSAEPDEPFIGYLGDVTASINQDIKEYGRRRTVIPTSDLVASFYTKKTPVFKVKFSRSNLALAGGAFRP

Target: Med17-HA (S. cerevisiae (endogenous in S288c)) (UniProt P32569)
Test: affinity purification with mass spectrometry; CoIP of Med17-HA on anti-HA magnetic beads from cryoground yeast lysate, 2 h at 4 °C; 20 mM HEPES pH 7.5, 300 mM KOAc, 10% glycerol, 0.01% NP-40, 6 mM MnSO4, 1 mM DTT, Cyanase nuclease; parallel control CoIP from 15N-labelled wild type cells, mixing after purification (MAP); GeLC-MS/MS, three biological replicates

| binding | Binder |
| --- | --- |
| binds | B1 |
| binds | B2 |
| binds | B3 |
| binds | B4 |
| binds | B5 |
| binds | B6 |
| binds | B7 |

These are yes or no findings as the source states them, for the method shown. Binding seen in cells or lysates may run through a third protein. A yes stands for co-enrichment or nearness to the bait. Other partners may have been found. Tags and fused reporters may be left off the sequences shown.
